From the supplement of paper PMC12823440, “Inhibitors supercharge kinase turnover through native proteolytic circuits” (Nature, 2025)
Counter-ions that a name gives are not always drawn. The list shows a part of the results. The calls rarely recur for the same compound in another form.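 Kinases, fused to nanoluciferase, were expressed in K562 cells; luminescence was measured every 4 h from 2 to 18 h as percent of control (DMSO = 100%, positive control = 0%). A time point is decreased if signal falls significantly (2 sigma). Hits were called by the authors by a rule that is not shown; the count of time points alone does not decide it.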

Sequences of proteins named here, by UniProt entry; tags and fusion partners are left off. A change or cut given only in a name is not applied to a line headed by its entry.
UniProt O96013: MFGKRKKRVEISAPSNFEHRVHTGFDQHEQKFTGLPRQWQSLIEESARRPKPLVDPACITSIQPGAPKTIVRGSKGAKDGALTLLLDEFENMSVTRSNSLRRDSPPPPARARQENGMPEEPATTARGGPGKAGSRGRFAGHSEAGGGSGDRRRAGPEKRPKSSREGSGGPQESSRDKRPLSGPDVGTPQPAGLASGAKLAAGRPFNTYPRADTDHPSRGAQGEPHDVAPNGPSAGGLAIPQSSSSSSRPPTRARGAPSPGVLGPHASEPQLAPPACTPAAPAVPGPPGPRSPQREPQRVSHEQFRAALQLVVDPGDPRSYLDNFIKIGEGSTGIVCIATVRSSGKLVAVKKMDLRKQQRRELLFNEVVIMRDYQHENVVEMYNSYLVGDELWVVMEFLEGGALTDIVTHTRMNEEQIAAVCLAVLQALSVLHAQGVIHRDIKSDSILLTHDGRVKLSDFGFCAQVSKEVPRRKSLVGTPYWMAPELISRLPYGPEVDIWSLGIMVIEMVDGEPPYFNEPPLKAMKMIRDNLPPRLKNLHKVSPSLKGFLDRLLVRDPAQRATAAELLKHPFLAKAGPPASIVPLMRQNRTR
UniProt Q96KB5: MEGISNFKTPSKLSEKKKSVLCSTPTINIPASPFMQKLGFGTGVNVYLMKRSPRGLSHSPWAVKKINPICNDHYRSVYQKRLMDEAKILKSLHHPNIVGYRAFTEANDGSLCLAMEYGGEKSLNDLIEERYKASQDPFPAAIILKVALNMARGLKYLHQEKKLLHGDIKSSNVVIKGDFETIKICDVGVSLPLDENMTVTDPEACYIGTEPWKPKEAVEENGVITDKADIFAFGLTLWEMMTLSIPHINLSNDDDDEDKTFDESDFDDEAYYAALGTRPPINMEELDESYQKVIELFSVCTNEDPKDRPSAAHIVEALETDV
UniProt P09619, whole entry: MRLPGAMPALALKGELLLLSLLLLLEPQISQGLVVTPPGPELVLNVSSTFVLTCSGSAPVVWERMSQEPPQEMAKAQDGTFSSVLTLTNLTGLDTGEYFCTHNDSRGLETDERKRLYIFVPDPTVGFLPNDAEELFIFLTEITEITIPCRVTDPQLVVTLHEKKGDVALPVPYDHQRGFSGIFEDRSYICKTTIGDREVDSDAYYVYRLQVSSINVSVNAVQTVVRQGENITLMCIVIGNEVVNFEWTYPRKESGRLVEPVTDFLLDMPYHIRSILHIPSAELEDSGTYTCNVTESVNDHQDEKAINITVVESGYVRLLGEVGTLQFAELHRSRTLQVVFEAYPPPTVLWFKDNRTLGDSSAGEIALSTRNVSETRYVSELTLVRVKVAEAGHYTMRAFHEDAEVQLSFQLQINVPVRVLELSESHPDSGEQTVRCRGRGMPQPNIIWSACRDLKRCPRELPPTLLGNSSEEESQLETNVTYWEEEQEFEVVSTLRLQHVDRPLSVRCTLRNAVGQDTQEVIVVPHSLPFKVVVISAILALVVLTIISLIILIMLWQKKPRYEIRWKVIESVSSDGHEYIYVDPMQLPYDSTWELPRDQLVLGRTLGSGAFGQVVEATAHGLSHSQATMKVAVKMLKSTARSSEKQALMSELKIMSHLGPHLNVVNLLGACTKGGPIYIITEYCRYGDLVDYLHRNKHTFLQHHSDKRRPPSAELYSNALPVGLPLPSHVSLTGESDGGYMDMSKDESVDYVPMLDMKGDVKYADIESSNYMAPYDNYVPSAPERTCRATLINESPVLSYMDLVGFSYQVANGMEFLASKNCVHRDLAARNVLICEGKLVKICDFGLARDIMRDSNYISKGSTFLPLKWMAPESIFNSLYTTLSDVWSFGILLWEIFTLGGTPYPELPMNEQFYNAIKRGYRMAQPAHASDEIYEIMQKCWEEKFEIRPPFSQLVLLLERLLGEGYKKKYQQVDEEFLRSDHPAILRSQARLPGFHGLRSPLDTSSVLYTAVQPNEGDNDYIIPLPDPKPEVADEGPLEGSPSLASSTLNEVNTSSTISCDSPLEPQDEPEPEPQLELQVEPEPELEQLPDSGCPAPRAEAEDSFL
UniProt Q15118, whole entry, looked up: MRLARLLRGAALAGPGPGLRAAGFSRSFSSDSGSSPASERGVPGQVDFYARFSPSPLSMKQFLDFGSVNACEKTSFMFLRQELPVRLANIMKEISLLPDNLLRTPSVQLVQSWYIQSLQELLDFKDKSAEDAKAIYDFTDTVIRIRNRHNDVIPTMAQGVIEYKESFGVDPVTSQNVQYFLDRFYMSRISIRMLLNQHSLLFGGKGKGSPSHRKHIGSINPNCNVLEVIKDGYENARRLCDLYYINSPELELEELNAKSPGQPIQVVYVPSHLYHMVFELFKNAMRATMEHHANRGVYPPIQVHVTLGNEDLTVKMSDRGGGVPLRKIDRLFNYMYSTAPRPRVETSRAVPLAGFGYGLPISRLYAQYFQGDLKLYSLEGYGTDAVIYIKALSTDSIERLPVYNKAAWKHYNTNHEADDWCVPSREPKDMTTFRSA
UniProt O15530: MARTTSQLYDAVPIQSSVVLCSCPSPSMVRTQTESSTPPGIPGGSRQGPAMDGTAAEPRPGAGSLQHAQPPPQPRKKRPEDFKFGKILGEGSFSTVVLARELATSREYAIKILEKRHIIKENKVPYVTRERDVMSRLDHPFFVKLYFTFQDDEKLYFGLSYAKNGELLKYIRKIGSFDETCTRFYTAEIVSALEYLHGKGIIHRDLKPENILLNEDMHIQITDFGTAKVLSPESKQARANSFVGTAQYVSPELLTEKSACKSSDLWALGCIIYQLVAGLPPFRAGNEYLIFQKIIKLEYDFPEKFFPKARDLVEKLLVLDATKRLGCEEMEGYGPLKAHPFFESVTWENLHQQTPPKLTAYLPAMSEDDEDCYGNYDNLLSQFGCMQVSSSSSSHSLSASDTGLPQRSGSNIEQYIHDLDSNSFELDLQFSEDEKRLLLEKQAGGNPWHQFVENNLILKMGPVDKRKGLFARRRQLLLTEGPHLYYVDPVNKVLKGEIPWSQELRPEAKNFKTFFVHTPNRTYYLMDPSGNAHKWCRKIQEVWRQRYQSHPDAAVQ
UniProt P42356, whole entry, looked up: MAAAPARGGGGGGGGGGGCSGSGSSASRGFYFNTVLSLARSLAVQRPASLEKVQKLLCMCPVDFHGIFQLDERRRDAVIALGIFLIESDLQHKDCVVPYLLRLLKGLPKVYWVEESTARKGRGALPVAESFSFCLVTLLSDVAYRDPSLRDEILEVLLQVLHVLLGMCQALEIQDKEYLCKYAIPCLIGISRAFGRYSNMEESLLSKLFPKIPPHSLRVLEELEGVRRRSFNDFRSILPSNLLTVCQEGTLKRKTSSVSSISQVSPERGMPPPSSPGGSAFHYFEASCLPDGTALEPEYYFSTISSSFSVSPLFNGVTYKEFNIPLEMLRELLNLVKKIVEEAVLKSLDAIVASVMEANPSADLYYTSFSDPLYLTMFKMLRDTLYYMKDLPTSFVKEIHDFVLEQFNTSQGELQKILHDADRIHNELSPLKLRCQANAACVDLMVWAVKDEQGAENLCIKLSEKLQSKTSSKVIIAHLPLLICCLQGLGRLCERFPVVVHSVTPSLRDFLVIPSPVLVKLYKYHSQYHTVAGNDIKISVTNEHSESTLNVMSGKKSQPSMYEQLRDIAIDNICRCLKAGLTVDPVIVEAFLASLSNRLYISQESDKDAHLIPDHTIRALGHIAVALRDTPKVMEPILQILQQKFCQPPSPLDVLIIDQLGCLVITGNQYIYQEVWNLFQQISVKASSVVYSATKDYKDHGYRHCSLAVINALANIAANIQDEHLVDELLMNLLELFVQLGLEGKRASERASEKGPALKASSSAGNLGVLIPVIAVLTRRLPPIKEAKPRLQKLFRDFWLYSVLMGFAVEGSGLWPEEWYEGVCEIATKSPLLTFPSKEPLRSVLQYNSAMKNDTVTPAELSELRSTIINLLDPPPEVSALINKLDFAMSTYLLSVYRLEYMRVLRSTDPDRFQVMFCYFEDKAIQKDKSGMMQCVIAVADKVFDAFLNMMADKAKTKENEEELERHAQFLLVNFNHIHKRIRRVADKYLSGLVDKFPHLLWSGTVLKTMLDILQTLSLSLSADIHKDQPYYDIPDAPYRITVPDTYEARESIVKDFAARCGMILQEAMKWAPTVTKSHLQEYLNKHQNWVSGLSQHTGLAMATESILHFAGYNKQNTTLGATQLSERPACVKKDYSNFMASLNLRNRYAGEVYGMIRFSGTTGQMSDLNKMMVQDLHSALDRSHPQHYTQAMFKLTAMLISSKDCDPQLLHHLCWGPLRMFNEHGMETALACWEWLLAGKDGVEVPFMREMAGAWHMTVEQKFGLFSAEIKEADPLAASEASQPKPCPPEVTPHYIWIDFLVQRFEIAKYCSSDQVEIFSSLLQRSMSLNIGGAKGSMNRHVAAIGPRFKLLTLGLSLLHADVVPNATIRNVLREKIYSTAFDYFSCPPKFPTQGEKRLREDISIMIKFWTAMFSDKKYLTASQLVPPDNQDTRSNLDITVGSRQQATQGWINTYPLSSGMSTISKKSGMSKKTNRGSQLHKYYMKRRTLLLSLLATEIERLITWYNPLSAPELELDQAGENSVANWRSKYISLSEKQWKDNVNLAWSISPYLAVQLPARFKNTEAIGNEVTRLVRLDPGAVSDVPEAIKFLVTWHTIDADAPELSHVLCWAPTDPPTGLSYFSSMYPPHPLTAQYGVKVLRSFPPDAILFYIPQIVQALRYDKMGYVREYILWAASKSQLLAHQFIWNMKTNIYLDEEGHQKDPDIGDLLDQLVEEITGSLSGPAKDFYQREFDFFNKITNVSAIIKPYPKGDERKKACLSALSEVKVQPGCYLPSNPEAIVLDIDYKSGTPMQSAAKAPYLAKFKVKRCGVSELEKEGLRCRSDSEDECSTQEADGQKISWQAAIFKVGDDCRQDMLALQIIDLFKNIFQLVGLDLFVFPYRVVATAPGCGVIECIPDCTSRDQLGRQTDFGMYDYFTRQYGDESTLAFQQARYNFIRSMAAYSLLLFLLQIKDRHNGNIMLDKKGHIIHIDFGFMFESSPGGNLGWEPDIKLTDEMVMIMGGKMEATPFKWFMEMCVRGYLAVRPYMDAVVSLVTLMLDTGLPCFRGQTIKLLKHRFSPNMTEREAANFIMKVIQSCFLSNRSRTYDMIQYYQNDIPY
UniProt Q9UBF8: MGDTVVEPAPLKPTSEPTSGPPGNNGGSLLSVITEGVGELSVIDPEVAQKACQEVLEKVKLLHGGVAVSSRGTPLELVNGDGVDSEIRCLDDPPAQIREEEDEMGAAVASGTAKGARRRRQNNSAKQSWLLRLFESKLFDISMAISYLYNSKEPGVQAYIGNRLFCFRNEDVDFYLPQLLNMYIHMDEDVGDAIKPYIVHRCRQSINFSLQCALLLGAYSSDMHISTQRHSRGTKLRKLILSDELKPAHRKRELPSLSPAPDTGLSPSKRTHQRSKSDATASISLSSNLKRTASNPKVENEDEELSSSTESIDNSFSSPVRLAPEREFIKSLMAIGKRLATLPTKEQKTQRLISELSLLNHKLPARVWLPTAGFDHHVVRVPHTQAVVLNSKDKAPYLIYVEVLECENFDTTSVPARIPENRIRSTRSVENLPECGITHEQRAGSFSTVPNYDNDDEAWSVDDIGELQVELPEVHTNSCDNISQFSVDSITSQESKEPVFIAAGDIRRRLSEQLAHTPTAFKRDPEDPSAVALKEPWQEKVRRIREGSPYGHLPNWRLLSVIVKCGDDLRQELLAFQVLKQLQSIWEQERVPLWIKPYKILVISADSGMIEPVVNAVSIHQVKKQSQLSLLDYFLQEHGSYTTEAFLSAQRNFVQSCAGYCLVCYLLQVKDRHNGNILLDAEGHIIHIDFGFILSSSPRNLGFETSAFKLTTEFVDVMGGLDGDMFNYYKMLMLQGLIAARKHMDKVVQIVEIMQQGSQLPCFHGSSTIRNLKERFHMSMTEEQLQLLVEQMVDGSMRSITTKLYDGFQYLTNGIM
UniProt Q13131: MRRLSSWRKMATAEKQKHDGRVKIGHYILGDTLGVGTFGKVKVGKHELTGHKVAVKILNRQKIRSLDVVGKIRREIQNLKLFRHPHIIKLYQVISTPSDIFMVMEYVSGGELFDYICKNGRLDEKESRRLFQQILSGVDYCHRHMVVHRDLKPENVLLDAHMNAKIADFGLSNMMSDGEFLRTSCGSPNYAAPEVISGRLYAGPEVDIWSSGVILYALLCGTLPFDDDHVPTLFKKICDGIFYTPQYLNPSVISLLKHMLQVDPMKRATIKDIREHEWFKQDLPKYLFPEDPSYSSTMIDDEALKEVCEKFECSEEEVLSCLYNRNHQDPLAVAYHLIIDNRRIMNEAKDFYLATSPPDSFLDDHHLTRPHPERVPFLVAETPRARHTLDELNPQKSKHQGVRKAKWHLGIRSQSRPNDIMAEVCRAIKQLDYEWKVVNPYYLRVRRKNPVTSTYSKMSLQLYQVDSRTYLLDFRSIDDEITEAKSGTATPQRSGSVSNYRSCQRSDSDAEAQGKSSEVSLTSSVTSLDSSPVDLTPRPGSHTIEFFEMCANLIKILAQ

Assays:
Test in all cases: number of time points (of 5) at which kinase-Nluc abundance scored as decreased, DMSO-normalised (count); higher = more persistent destabilization
Conditions in all cases: K562; 2-18 h
NTRK3 = NTRK3 (UniProt Q16288)
PAK4 = PAK4 (UniProt O96013)
PBK = PBK (UniProt Q96KB5)
PDGFRB = PDGFRB (UniProt P09619)
PDK1 = PDK1 (UniProt Q15118)
PDPK1 = PDPK1 (UniProt O15530)
PIK4CA = PIK4CA (UniProt P42356)
PIK4CB = PIK4CB (UniProt Q9UBF8)
PLK1 = PLK1 (UniProt P53350)
PRKAA1 = PRKAA1 (UniProt Q13131)

Measured: number of time points

C[C@@H](c1ccc(F)cc1)n1nnc2cnc3ccc(-c4ccc5ocnc5c4)cc3c21 (10 µM)
0: all assays above

CN(CC(=O)N(Cc1ccc(C2CCCCC2)cc1)c1ccc(C(=O)NO)cc1)S(=O)(=O)c1c(F)c(F)c(F)c(F)c1F (2.5 µM)
0: all assays above

Cc1ccccc1-n1c([C@H](C)Nc2nc(N)nc3nc[nH]c23)nc2cccc(C)c2c1=O [CAL-130 (Hydrochloride)] (10 µM)
0: all assays above

CCS(=O)(=O)Nc1ccc2[nH]c(O)c(C(=Nc3ccc(CN4CCCCC4)cc3)c3ccccc3)c2c1 [Hesperadin] (2.5 µM)
2: PRKAA1
4: PDPK1
3: NTRK3
1: PIK4CB
0: all other assays above

Cc1cc(=O)oc2c(C=O)c(O)ccc12 (10 µM)
0: all assays above

Cc1ccc2cc(-c3c(C)ccc(C(=O)c4c(-c5ccccc5)n(C)n(-c5ccccc5)c4=O)c3N)ccc2n1 (2.5 µM)
0: all assays above

Nc1ccc(-c2cnc(N)c(-c3ccc(Cl)cc3)c2)cn1 (10 µM)
0: all assays above

Nc1nc2ccc(Cl)cc2c2nc(-c3ccco3)nn12 (10 µM)
0: all assays above

O=c1[nH]c(=O)n([C@@H]2O[C@H](CO)[C@@H](O)[C@@H]2O)cc1/C=C/Br [Sorivudine] (10 µM)
0: all assays above

O=C(Nc1cn[nH]c1-c1ccccn1)c1nn(C2CCNCC2)cc1Cl (10 µM)
0: all assays above

C=CC(=O)Nc1cc(C)ccc1Nc1nc(Nc2cc(OC)ncc2C)ncc1C(F)(F)F (10 µM)
0: all assays above

Cn1cc(-c2ccc3nnc(Sc4ccc5ncccc5c4)n3n2)cn1 (10 µM)
0: all assays above

Cc1cc(CN2CCN(c3c(Br)cnc4nc(-c5ccc(N6CCN(C)CC6)cc5)[nH]c34)CC2)no1 (2.5 µM)
0: all assays above

N#CCC1CCN(c2nc(Nc3ccc(N4CCC(O)CC4)cc3)c3c(=O)[nH]ncc3n2)CC1 [Gusacitinib] (10 µM)
2: PDPK1
0: all other assays above

FC(F)(c1ccc2ncccc2c1)c1nnc2ccc(-c3ccncc3)nn12 (10 µM)
0: all assays above

NC(=O)c1ccc(-c2nc(-c3ccc4c(c3)OCCO4)c(-c3ccccn3)[nH]2)cc1 (10 µM)
1: NTRK3
0: all other assays above

Cc1ccc(C(=O)Nc2ccc(Oc3cc4cnn(C)c4cc3-c3cn[nH]c3)c(F)c2)c(=O)n1-c1ccc(F)cc1 [Merestinib dihydrochloride] (2.5 µM)
0: all assays above

COc1ccc(-c2ccc3c(N4CCOCC4)nc(N4C[C@@H](C)O[C@@H](C)C4)nc3n2)cc1CO (2.5 µM)
0: all assays above

CCOC(=O)N1CCN(C(=O)[C@H](Cc2cccc(C(=N)N)c2)NS(=O)(=O)c2c(C(C)C)cc(C(C)C)cc2C(C)C)CC1 (10 µM)
0: all assays above

COc1cc2ncnc(Nc3ccc(Cl)cc3F)c2cc1OC (10 µM)
0: all assays above

CC(=O)c1c(C)cc2cccc(O)c2c1O [Nepodin] (10 µM)
0: all assays above

CC#CC(=O)N1CC[C@@H](n2c(=O)n(-c3ccc(Oc4ccccc4)cc3)c3c(N)ncnc32)C1 [Tirabrutinib (hydrochloride)] (10 µM)
0: all assays above

CNC(=O)c1ccc(C)c(-n2c(C)cc(OCc3ccc(F)cc3F)c(Br)c2=O)c1 (10 µM)
0: all assays above

CC1(C)C(O[C@@H]2OC[C@@H](O)[C@H](O)[C@H]2O)CC[C@]23CC24CC[C@]2(C)[C@@H]([C@@]5(C)CC[C@@H](C(C)(C)O)O5)[C@H](O)C[C@@]2(C)C4C[C@@H](O[C@@H]2O[C@H](CO)[C@@H](O)[C@H](O)[C@H]2O)C13 (stereo partly specified) [Astragaloside IV] (10 µM)
0: all assays above

O=C1N[C@@H](Cc2c[nH]c3ccccc23)C(=O)N2CCC[C@@H]12 [Brevianamide F] (10 µM)
0: all assays above

CC(C)(C)c1cc(O)ccc1O (10 µM)
0: all assays above

CCCCCCCCCCCCC/C=C/[C@@H](O)[C@@H](N)CO [D-erythro-Sphingosine] (2.5 µM)
0: all assays above

CCc1cc2c(cc1N1CCC(N3CCOCC3)CC1)C(C)(C)c1[nH]c3cc(C#N)ccc3c1C2=O [Alectinib] (10 µM)
0: all assays above

Oc1cc2c(cc1O)C(Cc1cccc3ccccc13)NCC2 (stereo unspecified) (10 µM)
0: all assays above

CC(C)(O)CNc1ncc(-c2ccnc(Nc3ccnc(Cl)c3)n2)c(CC2CC2)n1 (2.5 µM)
0: all assays above

O=C(NCCN1CCCC1)c1cc(-c2ccc(CN3CCOCC3)cc2)nc2ccc(F)cc12 (10 µM)
0: all assays above

C=CC(=O)Nc1cccc(Nc2nc(Nc3ccc(NC4CN(CCF)C4)cc3OC)ncc2C(F)(F)F)c1 (2.5 µM)
0: all assays above

Cc1nc(-c2cn3c(n2)-c2ccc(-c4cnn(C(C)(C)C(N)=O)c4)cc2OCC3)n(C(C)C)n1 [Taselisib] (10 µM)
0: all assays above

c1cncc(CN2CCC(n3ncc4c(N5CCOCC5)nc(-c5ccc6[nH]ccc6c5)nc43)CC2)c1 (10 µM)
2: PRKAA1
3: PIK4CA | PIK4CB
4: NTRK3 | PDPK1
0: all other assays above

COCCNc1nc2ccc(C#CC3(O)CCCCC3)cc2n1-c1ccnc(N)n1 (10 µM)
0: all assays above

O=C([O-])c1cc2ccccc2c(Cc2c(O)c(C(=O)[O-])cc3ccccc23)c1O.[Na+].[Na+] [Pamoic acid (disodium)] (10 µM)
0: all assays above

O=C(Nc1ccc(CN2CCOCC2)cc1)c1ccc(-c2cccc(Cl)c2)o1 (10 µM)
0: all assays above

COc1cc2nccc(Oc3ccc(NC(=O)NC4CC4)c(Cl)c3)c2cc1C(N)=O [Lenvatinib] (10 µM)
0: all assays above

CC1CCc2c(cc(Br)c(F)c2Br)N1C=O (stereo unspecified) (10 µM)
0: all assays above

O=C(CSC1=NCCN1)NC1CCCCCC1 [ICCB-19 (hydrochloride)] (2.5 µM)
0: all assays above

CS(=O)(=O)Nc1cc(-c2ccc3ncnc(Nc4ccc(F)c(Cl)c4)c3c2)cnc1Cl (2.5 µM)
2: PDGFRB | PDPK1 | PIK4CB
0: all other assays above

CCN1CCN(Cc2ccc(Nc3ncc(F)c(-c4cc(F)c5nc(C)n(C(C)C)c5c4)n3)nc2)CC1 [Abemaciclib (methanesulfonate)] (10 µM)
3: PRKAA1
0: all other assays above

COc1cc2c(N3CCN(C(=O)Nc4ccc(OC(C)C)cc4)CC3)ncnc2cc1OCCCN1CCCCC1 [Tandutinib (hydrochloride)] (10 µM)
not listed: NTRK3 | PDGFRB
0: all other assays above

CC(C)(C)c1nc(-c2cccc(NS(=O)(=O)c3c(F)cccc3F)c2F)c(-c2ccnc(N)n2)s1 [Dabrafenib] (2.5 µM)
0: all assays above

COc1cc2c(N3CCN(C(=O)Nc4ccc(OC(C)C)cc4)CC3)ncnc2cc1OCCCN1CCCCC1 [Tandutinib] (10 µM)
not listed: NTRK3 | PDGFRB
0: all other assays above

O=C(NOCC(O)CO)c1cc(Br)c(F)c(F)c1Nc1ccc(I)cc1F (stereo unspecified) (2.5 µM)
0: all assays above
